According to PubChem BioAssay AID504467 (National Center for Advancing Translational Sciences (NCATS), 2011):
About 7,700 (2.3%) of roughly 330,000 compounds were called active. The shares of active, inactive and inconclusive entries below differ from those in the screen. Calls follow the shape of the dose curve; as a rule, active = well fitted inhibition curve with a large enough effect; inconclusive = small, poorly fitted or top-dose-only effect, or effect the other way; inactive = flat fitted curve, though single readings scatter. Where the call is inconclusive, the potency comes from a doubtful curve fit.

assay: qHTS screen for small molecules that inhibit ELG1-dependent DNA repair in human embryonic kidney (HEK293T) cells expressing luciferase-tagged ELG1; conditions: HEK293T ELG1-luciferase reporter, luminescence, 16 h, DNA damage induced by 5-fluorouridine; series mostly up to 46.1 µM; also: nearly all actives have a fitted effect of over 55% in size
Method in brief: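 In this reporter screen, reduction of luminescence relative to DMSO vehicle indicated activity. Compounds and 5-fluorouridine were added together to 2,000 cells per well, incubated for 16 hr at 37 °C, then developed with ONE-Glo.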
Potency is read from the fitted curve at half-maximal effect.

Compound	Potency
O=C(CNCc1ccccc1Cl)Nc1ccccc1N1CCCCC1	inconclusive: 23.1 µM [inhibitor, single point]
Cc1ccc(C(=O)Nc2ccc3nc(C)sc3c2)s1	inconclusive: 1.84 µM [activator, full curve]
CC(C)c1ccc(C2(C)NC(=O)N(C(C)C(=O)Nc3ccc(N4CCOCC4)cc3)C2=O)cc1 (stereo not given)	inactive
O=C(Nc1ccc(Cl)cn1)c1ccc2nccnc2c1	inconclusive: 9.2 µM [activator, partial curve]
Cc1ccc2c(c1)C(c1ccc(F)cc1)N(C(=O)c1ccccc1Br)CC(=O)N2 (stereo not given)	inactive
O=C(c1ccccc1F)N1CCN(c2cnn(-c3cccc(Cl)c3)c(=O)c2Cl)CC1	inconclusive: 29.1 µM [inhibitor, single point]
COc1ccc(S(=O)(=O)N2CCN(C(=O)c3oc4ccccc4c3C)CC2)cc1	inconclusive: 29.1 µM [inhibitor, single point]
Cc1ccc(-c2nnc(SCC(=O)N(C)C)nc2-c2ccc(C)cc2)cc1	inconclusive: 29.1 µM [inhibitor, single point]
COc1ccc(N(CC(=O)NCc2ccccc2Cl)S(=O)(=O)c2c(C)noc2C)cc1	inactive
COc1ccccc1NC(=O)CN1CCN(c2ccccc2OC)CC1	inconclusive: 29.1 µM [inhibitor, partial curve, poor fit]
CCN(C(=O)Cc1c(C(=O)O)n(C)c2ccccc12)c1cccc(C)c1	inactive
NS(=O)(=O)c1ccc(-c2cccc(/C=C3\SC(=O)NC3=O)c2)cc1	inactive
CCOc1cc2[nH]c(=S)n(CCCC(=O)NCc3ccccn3)c(=O)c2cc1OCC	inactive
COc1ccc(CC(=O)Nc2nc(C)cs2)cc1OC	active: 16.4 µM
Cc1nn(-c2ncc(C(F)(F)F)cc2Cl)c(=O)n1-c1cccc(Cl)c1	inconclusive: 23.1 µM [inhibitor, single point]
Cc1ccc(-c2ccc(/C=N/O)o2)cc1[N+](=O)[O-]	inconclusive: 18.3 µM [activator, partial curve]
O=S(=O)(c1cc(Cl)ccc1Cl)N1CCC2(CC1)OCCO2	inconclusive: 20.6 µM [activator, single point]
CCC(=Nc1ccccc1O)C1=C(O)CC(c2ccccc2)CC1=O (stereo not given)	inconclusive: 29.1 µM [inhibitor, partial curve, poor fit]
Cc1cccc(C(=O)NC2CCN(S(=O)(=O)c3ccccc3)CC2)c1	inactive
CC12CCC(=O)N1C(C(=O)Nc1cc(C(F)(F)F)ccc1N1CCCCC1)CS2 (stereo not given)	inactive
Cc1c(C(=O)N2CCN(S(=O)(=O)c3cccs3)CC2)oc2ccc(F)cc12	active: 5.17 µM
Cc1cc2c(c(C)nn2-c2ccccc2)c(=O)o1	inconclusive: 18.4 µM [activator, single point]
CCN(CC)Cc1c(O)ccc2occ(C(=O)c3ccc(OC)cc3)c12	inconclusive: 23.1 µM [inhibitor, partial curve, poor fit]

Rewritten comma-delimited: entries from further up.
Compound,Potency
O=C(c1ccccc1F)N1CCN(c2cnn(-c3cccc(Cl)c3)c(=O)c2Cl)CC1,"inconclusive: 29.1 µM [inhibitor, single point]"
NS(=O)(=O)c1ccc(-c2cccc(/C=C3\SC(=O)NC3=O)c2)cc1,inactive
CC12CCC(=O)N1C(C(=O)Nc1cc(C(F)(F)F)ccc1N1CCCCC1)CS2 (stereo not given),inactive

Further results.

Compound	Potency
Fc1ccc(CN2CCSCC2)cc1Br	inactive
COc1ccc(S(=O)(=O)N(CCCN2CCCC2=O)Cc2cc3cc(C)c(C)cc3[nH]c2=O)cc1	inconclusive: 23.1 µM [inhibitor, single point]
CN1C(=O)CS(=O)c2ccc(C(=O)NCCC3=CCCCC3)cc21 (stereo not given)	inconclusive: 23.1 µM [inhibitor, partial curve]
Clc1ccc(-n2ncc3c(NCc4ccc5c(c4)OCO5)ncnc32)cc1	inconclusive: 20.6 µM [activator, partial curve]
CCN(CC)CCNC(=O)c1ccc(NC(=O)c2ccc(COc3ccccc3)cc2)cc1	inconclusive: 5.8 µM [activator, partial curve, poor fit]
O=C(Nc1cccc(S(=O)(=O)NC2=NCCC2)c1)c1ccc(F)cc1	inconclusive: 23.1 µM [inhibitor, partial curve, poor fit]
O=C(O)C1CC=CCC1C(=O)Nc1cccnc1 (stereo not given)	inconclusive: 20.6 µM [inhibitor, single point]
CCOC(=O)C1(S(=O)(=O)c2ccccc2)CCN(Cc2ccc(Cl)cc2)CC1	inconclusive: 20.6 µM [inhibitor, single point]
CCOC(=O)c1c(-c2ccco2)csc1NC(=O)CSc1nnc(N)s1	inactive
Cc1cc(C(=O)NCCc2ccccc2)ccc1[N+](=O)[O-]	inconclusive: 14.6 µM [activator, partial curve]
CCCn1c(SCC(=O)N2c3ccccc3CC2C)nnc1-c1ccco1 (stereo not given)	inconclusive: 23.1 µM [inhibitor, single point]
c1csc(CSc2nc3ccccc3s2)c1	inconclusive: 11.6 µM [activator, partial curve]
CC(=O)c1ccc(-n2c(C)ccc2-c2ccccc2)cc1	inconclusive: 23.1 µM [activator, single point]
CCC1(c2ccccc2)NC(=O)N(CC(=O)NC2(C#N)CCCCC2)C1=O (stereo not given)	inconclusive: 25.9 µM [activator, single point]
COc1ccc(OC)c(C2=NS(=O)(=O)N(C)C(C(=O)Nc3cccc(C(C)=O)c3)=C2)c1	inconclusive: 32.6 µM [inhibitor, single point]
CC(OC(=O)c1ccncc1)C(=O)Nc1cccc([N+](=O)[O-])c1 (stereo not given)	inactive
CC(C)(C)OC(=O)N1CCN(C(=O)c2nc[nH]c2C(=O)N2CCN(c3ccccc3)CC2)CC1	inactive
COc1ccc(CC(NC(C)=O)C(=O)NC2CCN(c3nc(C)cc(C)c3C#N)CC2)cc1OC (stereo not given)	inconclusive: 29.1 µM [inhibitor, single point]
CC(C)Cc1nnc(NC(=O)CCC(=O)N2CCN(c3ccc(F)cc3)CC2)s1	inactive
COc1ccc(/C=C/c2noc(-c3ccccc3O)n2)cc1	inconclusive: 5.17 µM [activator, full curve, poor fit]
CCOc1ccc(N2CC(C(=O)NCCN3C(=O)S/C(=C/c4cccnc4)C3=O)CC2=O)cc1 (stereo not given)	inconclusive: 6.51 µM [inhibitor, partial curve]
COc1ccc(OC(=O)COc2cccc(C)c2)cc1	inactive
O=C(CCC(=O)c1cccs1)NNC(=O)c1ccc(Cl)cc1	inconclusive: 5.8 µM [activator, partial curve, poor fit]
Cc1ccc(NCCC(=O)c2cccs2)cc1C	inconclusive: 14.6 µM [activator, partial curve]

Compound	Potency
COc1ccc(NC(=O)CO/N=C(\C)c2cccs2)cc1	inactive
O=C1CCC(C(=O)Nc2cccc(S(=O)(=O)Nc3ccccc3F)c2)=NN1	inactive
O=C(NNC(=O)c1ccccc1Cl)c1ccco1	inconclusive: 20.6 µM [activator, single point]
Nn1c(-c2ccccc2)nc2ccccc2c1=O	inactive
O=C(Nc1ccc2c(c1)OCO2)C1CCN(C(=O)CSc2ncnc3ccccc23)CC1	inconclusive: 16.4 µM [inhibitor, single point]
COCCNc1nc(=S)[nH]c2cc(OC)c(OC)cc12	inconclusive: 20.6 µM [activator, single point]
COc1cc(CN2CCN(C(=O)c3ccccc3F)CC2)cc(OC)c1OC	inconclusive: 22.4 µM [inhibitor, partial curve, poor fit]
CC(/C=N/NC(=O)c1ccccn1)=C\c1ccco1	inconclusive: 8.2 µM [activator, partial curve]
CCOc1ccc(-c2cccc(NS(=O)(=O)c3ccc([N+](=O)[O-])cc3)c2)nn1	inactive
Cc1ccccc1C1CC(c2ccc(F)cc2)Nc2nc(N)nn21 (stereo not given)	inconclusive: 23.1 µM [activator, partial curve, poor fit]
O=C(Nc1ccc(NC(=O)c2cccs2)cc1)c1ccc2ccccc2c1	inconclusive: 20.6 µM [activator, partial curve]
Cc1ccc(OCCC(=O)OCC(=O)NC(=O)NC2CCCC2)cc1	inactive
CNC(=S)N1N=C(c2ccc(C)cc2)CC1c1ccc(N(C)C)cc1 (stereo not given)	inconclusive: 23.1 µM [inhibitor, single point]
CCC(=O)N(Cc1cc(=O)[nH]c2ccccc12)c1ccc(C)cc1	inconclusive: 29.1 µM [inhibitor, single point]
Cn1c(CNc2nc3ccccc3n2C)nc2ccccc21	inconclusive: 10 µM [activator, partial curve]
N#CCSc1nc2cc(C(=O)N3CCCC3)ccc2c(=O)n1Cc1ccccc1	inconclusive: 0.13 µM [activator, full curve, poor fit]
Cc1ccc(CSc2nc3ccccc3cc2C=O)cc1	inconclusive: 20.6 µM [activator, partial curve]
CCCCCN(C(=O)CCC(=O)OCC(=O)NCc1cccc(OC)c1)c1c(N)n(CCCC)c(=O)[nH]c1=O	inactive
Cc1cnc(C(=O)Nc2ccc(C)c(S(=O)(=O)N(C)C)c2)cn1	inconclusive: 13 µM [activator, partial curve]
CCOc1cc(C(=O)Nc2ccc3c4c(cccc24)C(=O)N3CC)cc(OCC)c1OCC	active: 20.6 µM
COc1ccc(C(=O)/C(=C/O)N=Nc2ccc(F)cc2)cc1	inactive
Cc1cccc(C)c1-n1cccc1/C=C1\SC(=S)N(c2cccc(C(=O)O)c2)C1=O	inconclusive: 29.1 µM [activator, single point]
